No constants are given. Whether binding was seen depends on the method and setting. Binding seen in cells or lysates may run through a third protein. Here binding means that the protein was enriched with, or labelled near, the bait; the list need not be complete.

Amino acid sequences for entries named in this document (tags omitted).
UniProt O75376: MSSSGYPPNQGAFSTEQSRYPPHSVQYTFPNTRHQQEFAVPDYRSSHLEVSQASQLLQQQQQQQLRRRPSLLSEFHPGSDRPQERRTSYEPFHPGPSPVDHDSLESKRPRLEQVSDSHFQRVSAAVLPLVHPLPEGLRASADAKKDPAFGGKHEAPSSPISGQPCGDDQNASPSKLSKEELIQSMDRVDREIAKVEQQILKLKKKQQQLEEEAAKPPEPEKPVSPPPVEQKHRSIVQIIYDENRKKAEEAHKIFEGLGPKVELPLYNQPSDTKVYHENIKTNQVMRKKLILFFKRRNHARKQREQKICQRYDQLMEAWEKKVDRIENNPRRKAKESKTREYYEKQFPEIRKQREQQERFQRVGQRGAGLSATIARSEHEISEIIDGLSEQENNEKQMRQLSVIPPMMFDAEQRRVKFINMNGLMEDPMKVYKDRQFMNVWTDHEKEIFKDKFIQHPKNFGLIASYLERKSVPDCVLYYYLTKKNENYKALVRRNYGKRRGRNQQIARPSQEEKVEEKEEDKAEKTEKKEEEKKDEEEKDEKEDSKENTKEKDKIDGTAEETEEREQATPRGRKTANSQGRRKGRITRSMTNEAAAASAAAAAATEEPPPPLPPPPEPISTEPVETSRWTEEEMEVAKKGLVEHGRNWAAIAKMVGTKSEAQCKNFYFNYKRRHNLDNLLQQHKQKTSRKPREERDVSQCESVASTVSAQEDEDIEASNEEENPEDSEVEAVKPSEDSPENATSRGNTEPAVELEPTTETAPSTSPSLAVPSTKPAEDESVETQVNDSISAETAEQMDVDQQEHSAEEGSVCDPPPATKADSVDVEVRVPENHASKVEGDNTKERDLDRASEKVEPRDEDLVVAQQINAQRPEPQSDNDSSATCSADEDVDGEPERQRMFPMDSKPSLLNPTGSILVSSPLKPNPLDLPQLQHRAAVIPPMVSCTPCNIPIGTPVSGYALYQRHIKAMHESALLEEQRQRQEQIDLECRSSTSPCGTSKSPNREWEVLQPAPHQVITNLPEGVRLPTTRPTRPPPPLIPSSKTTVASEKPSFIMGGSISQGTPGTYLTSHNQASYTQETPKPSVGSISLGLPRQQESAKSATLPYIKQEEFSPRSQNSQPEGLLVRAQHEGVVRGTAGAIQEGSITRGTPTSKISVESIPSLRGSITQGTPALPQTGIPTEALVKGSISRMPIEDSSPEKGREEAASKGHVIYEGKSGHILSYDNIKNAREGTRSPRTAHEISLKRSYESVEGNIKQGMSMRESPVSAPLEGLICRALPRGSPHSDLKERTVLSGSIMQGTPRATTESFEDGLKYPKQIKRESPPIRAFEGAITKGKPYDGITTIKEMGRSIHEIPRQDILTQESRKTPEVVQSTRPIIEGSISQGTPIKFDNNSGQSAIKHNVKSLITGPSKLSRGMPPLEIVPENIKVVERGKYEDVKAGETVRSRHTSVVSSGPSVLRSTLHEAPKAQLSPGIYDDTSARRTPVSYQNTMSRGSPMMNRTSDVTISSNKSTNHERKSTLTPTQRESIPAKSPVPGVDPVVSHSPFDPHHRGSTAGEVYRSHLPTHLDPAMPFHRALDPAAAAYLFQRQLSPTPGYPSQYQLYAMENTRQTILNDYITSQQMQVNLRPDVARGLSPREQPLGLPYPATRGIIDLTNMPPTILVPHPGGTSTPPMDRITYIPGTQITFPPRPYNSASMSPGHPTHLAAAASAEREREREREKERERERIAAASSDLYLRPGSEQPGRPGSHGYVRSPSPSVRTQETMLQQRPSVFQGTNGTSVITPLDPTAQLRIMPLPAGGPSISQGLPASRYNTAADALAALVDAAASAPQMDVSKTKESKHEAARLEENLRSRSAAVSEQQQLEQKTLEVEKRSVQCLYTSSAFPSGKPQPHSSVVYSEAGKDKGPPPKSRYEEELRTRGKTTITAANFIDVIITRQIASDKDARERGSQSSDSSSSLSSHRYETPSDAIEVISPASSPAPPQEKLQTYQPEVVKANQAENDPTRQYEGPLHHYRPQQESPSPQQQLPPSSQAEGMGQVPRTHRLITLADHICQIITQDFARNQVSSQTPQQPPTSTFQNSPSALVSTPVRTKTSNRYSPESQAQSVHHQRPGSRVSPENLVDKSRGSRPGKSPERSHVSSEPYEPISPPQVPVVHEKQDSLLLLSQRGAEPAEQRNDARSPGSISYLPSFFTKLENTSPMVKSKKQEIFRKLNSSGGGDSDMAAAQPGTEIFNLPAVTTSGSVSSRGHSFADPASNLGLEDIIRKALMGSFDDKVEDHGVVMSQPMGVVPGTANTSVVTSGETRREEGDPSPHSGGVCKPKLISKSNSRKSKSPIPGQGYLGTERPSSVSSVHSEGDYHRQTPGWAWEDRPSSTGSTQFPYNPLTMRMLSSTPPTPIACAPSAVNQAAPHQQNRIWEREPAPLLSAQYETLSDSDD
UniProt P11142: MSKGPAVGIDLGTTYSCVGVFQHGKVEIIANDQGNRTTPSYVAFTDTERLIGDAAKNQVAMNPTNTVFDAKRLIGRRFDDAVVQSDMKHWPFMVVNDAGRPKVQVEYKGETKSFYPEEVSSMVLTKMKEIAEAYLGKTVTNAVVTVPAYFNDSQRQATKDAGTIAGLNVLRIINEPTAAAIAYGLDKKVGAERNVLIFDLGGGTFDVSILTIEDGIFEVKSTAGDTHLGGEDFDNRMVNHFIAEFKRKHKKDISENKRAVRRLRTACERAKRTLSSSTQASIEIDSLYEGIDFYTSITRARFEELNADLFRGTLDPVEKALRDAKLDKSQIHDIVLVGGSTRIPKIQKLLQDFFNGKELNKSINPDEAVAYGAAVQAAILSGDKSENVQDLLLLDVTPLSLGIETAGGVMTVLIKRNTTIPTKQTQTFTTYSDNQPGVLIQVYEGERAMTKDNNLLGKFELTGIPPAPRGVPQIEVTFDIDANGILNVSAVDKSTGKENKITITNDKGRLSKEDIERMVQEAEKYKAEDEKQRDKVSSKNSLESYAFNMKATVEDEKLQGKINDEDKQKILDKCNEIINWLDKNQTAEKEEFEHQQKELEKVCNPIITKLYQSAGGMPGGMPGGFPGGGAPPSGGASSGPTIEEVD

1 substance from PMC3179509 can be followed below.

The assay deals with Flag-tagged N-CoR (nuclear receptor co-repressor) (UniProt O75376). Nature of the assay: affinity purification with mass spectrometry; flag-tagged N-CoR from 293T cells incubated with protease-depleted, column purified cytosolic extract of H2170 cells; precipitated with anti-flag antibody; bands from SDS-PAGE excised and identified by MS.

With Hsc70 (from UniProt P11142 1-646), the binding entry is listed as “binds”.
